Results are given in words; binding and its absence hold for the method and conditions named. Some entries that bind do so weakly or less than the wild type.
Biological target: N-terminal domain of H. sapiens PEX14 (residues 19-84) (H. sapiens) (UniProt O75381)
Experiment: AlphaScreen or HTRF

Sequences of proteins named here, by UniProt entry; tags and fusion partners are left off. Residues count along the entry.
UniProt O75381, residues 19-84: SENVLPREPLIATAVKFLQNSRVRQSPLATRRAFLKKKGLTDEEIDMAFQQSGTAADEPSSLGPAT

## ALSENWAQEFLA (biotinylated (position not given)) [biotinylated PEX5-derived peptide (…)]
  binding: binds

From paper doi:10.1101/2025.08.01.668090
